Primary screen of a compound library

By UniProt entry, the sequences of proteins in these tests, tags left out. Residues count along the entry.
UniProt A4I591, 1-473: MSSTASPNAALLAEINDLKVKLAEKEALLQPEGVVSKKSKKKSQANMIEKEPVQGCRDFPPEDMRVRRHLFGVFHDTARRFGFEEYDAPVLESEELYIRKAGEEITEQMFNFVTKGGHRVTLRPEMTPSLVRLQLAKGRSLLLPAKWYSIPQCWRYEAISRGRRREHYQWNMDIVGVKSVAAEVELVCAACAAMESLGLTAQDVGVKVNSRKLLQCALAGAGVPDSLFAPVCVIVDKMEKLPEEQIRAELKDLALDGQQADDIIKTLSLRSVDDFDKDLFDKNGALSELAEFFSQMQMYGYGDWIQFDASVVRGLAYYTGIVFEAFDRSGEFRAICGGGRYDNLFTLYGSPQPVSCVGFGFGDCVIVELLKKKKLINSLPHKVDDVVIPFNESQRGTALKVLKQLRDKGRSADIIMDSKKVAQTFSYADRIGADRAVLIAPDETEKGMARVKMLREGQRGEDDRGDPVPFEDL

The values are deposited in ChEMBL (CHEMBL3988442, “University of Dundee, Small-Polar-MMV Screening Library” (2021)).

The filed quantity is “Percent Effect” (%). How 0% and 100% were set is not recorded. Most values in the screen are low, and negative values occur. This is an unselected part of the compounds tested. A dash means the value is not listed here; it may have been measured.

A: 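Histidine-tRNA ligase, Leishmania infantum (UniProt A4I591). Enzyme assay of histidyl-tRNA synthetase; the read-out is not stated. Compounds at 30 µM. The record gives no direction; compounds that gave an IC50 in retests scored well above the rest, so higher reads as stronger inhibition. The assay is labelled LdHisRS but filed under L. infantum. Of about 69,000 compounds tested this way, about 410 (0.6%) reached 50% or more in at least one test.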
B: 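Assay of Toxoplasma gondii numbers, read through their beta-galactosidase reporter with a colour substrate. Concentration: 10 µM. Higher reads as fewer parasites (inferred from which compounds were picked for retests). Size under these conditions: about 67,000 compounds, about 260 of them at 50% or above in at least one test.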

SMILES,A,B
CCN(CCC(=O)OC)C(=O)c1cc(F)cc2[nH]cnc12,3.39,1.644
Cc1ccc(-c2nc(CN3CCOC(Cn4cccn4)C3)no2)cc1 (stereo unspecified),6.78,13.97
O=C(c1ccccc1F)N1CCCn2c(CN3CCCCC3)nnc2C1,17,-
CC(C)n1cnnc1CN(C)Cc1cnc(-c2cccs2)nc1,15.62,13.07
Cc1ccc(N2CCC3(CCCN3Cc3ccn(C)n3)CC2)nn1.O=C(O)C(F)(F)F,-,-12.59
CC(=O)N1CCOCC2(CN(Cc3ccc(C)o3)CCO2)C1 (stereo unspecified),6.569,-
Cc1noc(C)c1CCC(=O)N1CCCN(CC(N)=O)CC1,17.86,-20.2
Cc1ccc(CN2CCC3(C2)C(=O)N(CC(C)C)c2ccccc23)s1 (stereo unspecified),13.46,8.863
COc1cccc(Cn2c(=O)n(C)c(=O)c3sccc32)c1,13.56,-9.787
Cc1ccc(C(=O)Nc2ccc3c(c2)N(C)CCN(C)C3)c(=O)[nH]1,5.319,-2.632
CCN1CC(C(=O)NC(C)(C)C(=O)OC)CC1=O (stereo unspecified),15.96,-12.27
O=C(c1ccc[nH]1)N1C[C@H]2CN(Cc3cccc(F)c3)C(=O)[C@H]2C1,13.53,-
CCC(C)N1Cc2c(C(=O)N3CCOCC3)nn(C)c2C1 (stereo unspecified),-0.9091,-
CN(Cc1cnccn1)c1cncc(Br)c1,3.614,-23.15
CCn1ccc(C(=O)Nc2ccc3c(c2)C(C)(C)C(=O)N3C)n1,12.5,-22.06
O=C(O)C(F)(F)F.[H][C@@]12CN(Cc3ccc(F)cc3)C[C@]1([H])C(=O)N(c1cncnc1)C2,-,5.124
CCOCC1CN(C(=O)c2ccncc2)Cc2nn(C)cc21.O=C(O)C(F)(F)F (stereo unspecified),-,1.175
CN(C)C(=O)CSc1nnc(CCNC(=O)OC(C)(C)C)o1,-1.942,-7.412
c1cc2nccc(CC3CCCN(Cc4ncc[nH]4)CC3)c2cn1 (stereo unspecified),50,11.21
CC(C)C1CN(S(=O)(=O)N2CCCC2)CCCN1Cc1ccc(F)cc1 (stereo unspecified),27.63,-2.378
COc1ccc(Oc2cncc(C3CCCN3C(C)=O)n2)cc1 (stereo unspecified),13.89,11.34
O=C(CN1CCCC1=O)N1CCC(O)(Cn2ccc3ccncc32)CC1,18,-
Cc1cc(C)c(CNC(=O)C2COc3ccccc3C2)c(=O)[nH]1 (stereo unspecified),15.32,10.11
CCCN1CCC(CC(=O)NCCc2nc(C)cc(C)n2)CC1,13.33,23.31
COCc1ccccc1C(=O)NCC(O)c1ccccc1F (stereo unspecified),21.92,7.044
CC(C)CCC(=O)Nc1ccc2oc(=O)n(CCN(C)C)c2c1,27.68,4.419
CCOC(=O)CSc1nnc([C@@H](N)CC(C)C)o1,10.42,-
O=C(O)C(F)(F)F.O=C(c1ccncc1)N1CCOC2(CCCN(c3nncs3)C2)C1 (stereo unspecified),-,3.612
Cc1cccc(C(=O)N2CCCN(Cc3cnn(C)c3)CC2)n1,0,-2.632
CC(=O)N1CCC2(CC1)C(=O)N(CC1CC1)c1ccccc12,19.51,5.174
Cc1ccc(CNC(=O)Cn2c(=O)c3cccnc3n2C)cc1F,14.29,12.16
Cc1ccc(CN2CC[C@H]3O[C@@H](C(=O)N4CCCO4)CC[C@H]32)s1,20,-
CC(=O)N1CCCC(C(=O)NCCc2csc(-c3ccncc3)n2)C1 (stereo unspecified),24.71,30.39
CCCc1cc(C(=O)N2CCC3(CCCNC3=O)C2)cs1 (stereo unspecified),-3.509,-6.93
O=c1c2cccnc2cnn1CC(O)c1cccc(C(F)(F)F)c1 (stereo unspecified),23.53,-2.526
Cc1ccc(CNc2cc(C(=O)N3CCOCC3)nc(C)n2)cc1,14.16,18.9
O=C(O)C(F)(F)F.[H][C@]12CCN(S(=O)(=O)CC)CC[C@@]1([H])S(=O)(=O)CCN2Cc1cccc(C)n1,-,21.1
CCc1nc(CN(C)CC(N)=O)cs1,11.86,-21.09
CC(C)Nc1nc2c(c(NC3CC3)n1)CCN(C1CCOCC1)CC2,6.897,-2.643
O=C(C1CCCC1)N1CCC(c2ncc3c(n2)CCNC3)C1 (stereo unspecified),20,16.32
CCCS(=O)(=O)N1CCc2nc(N3CCOCC3)nc(N(C)C)c2C1,6.897,5.124
COc1ncccc1C(=O)N1CCC2(CC1)CC(OC)CO2 (stereo unspecified),13.51,-
CN(CC1=CCCN(CCc2ccccn2)C1)C(=O)c1ccco1,11.11,-15.4
O=C(NCCn1ccnc1)c1ccn(-c2cccc(F)c2)n1,7.576,-0.8161
CCc1ncc(CN2CCCC3(CCC(=O)N(CCC(C)C)C3)C2)cn1 (stereo unspecified),-12.5,3.723
COc1ccnc(N2CCC3(CCCN(C(C)C)C3=O)C2)n1 (stereo unspecified),8,0.1775
CCCc1nnc([C@H]2CCN(Cc3ncc[nH]3)C2)o1,19.44,-4.453
CN(C)C(=O)c1cc2ncc(C(=O)NC3CCCC3)cc2n1C,11.88,6.857
O=C(O)C(F)(F)F.[H][C@@]12COC[C@]1(COCC1CCCC1)CN(c1ncccn1)C2,-,4.698
COc1ccc(OC)c(C(=O)N(C)Cc2ncc(C)c(OC)c2C)c1,19.83,5.559